The target in this experiment is native mGlu1b receptor of rat brain (rat (endogenous in rat brain)) (UniProt P23385). Put plainly: co-IP.

Chains of the proteins cited; added tags and fusions are not shown. Lines headed by an entry give the natural chain unless they say otherwise; changes in a name come on top. A line that says so, or that is headed by a name, gives the form on record, which may keep a tag or linker.
native mGlu1b receptor of rat brain (rat (endogenous in rat brain)) (P23385, form named): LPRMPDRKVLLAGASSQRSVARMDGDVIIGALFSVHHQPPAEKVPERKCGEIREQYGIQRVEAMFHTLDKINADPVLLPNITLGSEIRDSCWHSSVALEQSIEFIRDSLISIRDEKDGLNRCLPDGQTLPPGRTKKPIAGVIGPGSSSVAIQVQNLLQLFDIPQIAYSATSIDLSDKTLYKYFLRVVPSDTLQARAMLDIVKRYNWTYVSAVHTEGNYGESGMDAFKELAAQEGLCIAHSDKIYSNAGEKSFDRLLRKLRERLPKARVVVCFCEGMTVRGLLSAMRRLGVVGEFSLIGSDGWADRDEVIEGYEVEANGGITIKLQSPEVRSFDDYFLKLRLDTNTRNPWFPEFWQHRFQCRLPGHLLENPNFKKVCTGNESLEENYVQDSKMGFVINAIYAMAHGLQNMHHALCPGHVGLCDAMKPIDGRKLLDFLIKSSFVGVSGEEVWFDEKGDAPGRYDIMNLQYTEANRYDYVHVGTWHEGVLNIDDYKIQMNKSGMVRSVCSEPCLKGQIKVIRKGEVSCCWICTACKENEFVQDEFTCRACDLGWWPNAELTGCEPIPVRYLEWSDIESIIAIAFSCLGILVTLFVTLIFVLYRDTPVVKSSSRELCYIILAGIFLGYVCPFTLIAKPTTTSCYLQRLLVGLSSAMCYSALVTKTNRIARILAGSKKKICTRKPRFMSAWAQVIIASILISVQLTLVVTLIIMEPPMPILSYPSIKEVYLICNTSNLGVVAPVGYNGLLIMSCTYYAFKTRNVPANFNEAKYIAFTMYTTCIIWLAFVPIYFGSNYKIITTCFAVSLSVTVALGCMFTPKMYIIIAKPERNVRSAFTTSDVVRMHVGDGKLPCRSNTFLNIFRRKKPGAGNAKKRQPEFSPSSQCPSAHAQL

These are yes or no findings as the source states them, for the method shown. In cells and extracts the contact can be indirect. Some binding calls cover weakened binding; strength is not graded here.

B1: native FEZ1 of rat brain (protein, UniProt P97577 1-393)
chain: MEAPLVSLDEEFEDIRPCCTEDPEEKPQSLYGTSPHHLEDPSLSELENFSSEIISFKSMEDLVNEFDEKLNVCFRNYNAKTENLAPVKNQLQIQEEEETLRDEEVWDALTDNYIPSLSEDWRDPNIEALNGNSSDTEIHEKEEEDEFIEKSENDSGINEEPLLTADQVIEEIEEMMQNSPDPEEEVEVLEEEDGGEISSQADSVLLQEMQALTQTFNNNWSYEGLRHMSGSELTELLDQVEGAIRDFSEELVHQLARRDELEFEKEVKNSFITVLIEVQNKQKEQRELMKKRRKEKGLSLQSSRIEKGNQMPLKRFSMEGISNILQSGIRQTFGSSGADRQYLNTVIPYEKKSSPPSVEDLQMLTNILFAMKEDNEKVPTLLTDYILKVLCPT
Turning to B1, the binding result is “binds”.

The values are drawn from doi:10.1101/2020.11.02.365783.
